# Test results published in the supplement of paper PMC8728848.
# Some of the results follow.
# What was measured:
# Experiment in all cases: glycan array binding signal (z-score within array); higher = stronger binding
# Settings in all cases: glycan notation: IUPAC condensed, linker removed
# [1] = molecular target: Fuc(a1-2)Gal6S(b1-3)GlcNAc6S
# Outline: (§1)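 From the Consortium for Functional Glycomics database, 3228 arrays were curated, keeping only those whose protein sequence was available. Binding is given as a within-array Z-score averaged across arrays sharing a protein sequence and across linkers. Negative Z-scores can be read as non-binding.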
# [2] = molecular target: Fuc(a1-2)Gal6S(b1-4)Glc
# Outline: as §1
# [3] = molecular target: Fuc(a1-2)Gal6S(b1-4)Glc6S
# Outline: as §1
# [4] = molecular target: Fuc(a1-2)[Gal(a1-3)]Gal
# Outline: as §1
# [5] = molecular target: Fuc(a1-2)[Gal(a1-3)]Gal(b1-3)GalNAc
# Outline: as §1
# [6] = molecular target: Fuc(a1-2)[Gal(a1-3)]Gal(b1-3)GalNAc(b1-3)Gal(a1-4)Gal(b1-4)Glc
# Outline: as §1
# [7] = molecular target: Fuc(a1-2)[Gal(a1-3)]Gal(b1-3)GlcNAc
# Outline: as §1
# [8] = molecular target: Fuc(a1-2)[Gal(a1-3)]Gal(b1-3)GlcNAc(b1-2)Man(a1-3)[Fuc(a1-2)[Gal(a1-3)]Gal(b1-3)GlcNAc(b1-2)Man(a1-6)]Man(b1-4)GlcNAc(b1-4)GlcNAc
# Outline: as §1
# [9] = molecular target: Fuc(a1-2)[Gal(a1-3)]Gal(b1-3)GlcNAc(b1-2)Man(a1-3)[Fuc(a1-2)[Gal(a1-3)]Gal(b1-3)GlcNAc(b1-2)Man(a1-6)]Man(b1-4)GlcNAc(b1-4)[Fuc(a1-6)]GlcNAc
# Outline: as §1
# [10] = molecular target: Fuc(a1-2)[Gal(a1-3)]Gal(b1-3)GlcNAc(b1-3)GalNAc
# Outline: as §1
# [11] = molecular target: Fuc(a1-2)[Gal(a1-3)]Gal(b1-3)GlcNAc(b1-6)GalNAc
# Outline: as §1
# [12] = molecular target: Fuc(a1-2)[Gal(a1-3)]Gal(b1-4)Glc
# Outline: as §1
# [13] = molecular target: Fuc(a1-2)[Gal(a1-3)]Gal(b1-4)GlcNAc
# Outline: as §1
# [14] = molecular target: Fuc(a1-2)[Gal(a1-3)]Gal(b1-4)GlcNAc(b1-2)Man
# Outline: as §1
# [15] = molecular target: Fuc(a1-2)[Gal(a1-3)]Gal(b1-4)GlcNAc(b1-2)Man(a1-3)[Fuc(a1-2)[Gal(a1-3)]Gal(b1-4)GlcNAc(b1-2)Man(a1-6)]Man(b1-4)GlcNAc(b1-4)GlcNAc
# Outline: as §1
# [16] = molecular target: Fuc(a1-2)[Gal(a1-3)]Gal(b1-4)GlcNAc(b1-2)Man(a1-3)[Fuc(a1-2)[Gal(a1-3)]Gal(b1-4)GlcNAc(b1-2)Man(a1-6)]Man(b1-4)GlcNAc(b1-4)[Fuc(a1-6)]GlcNAc
# Outline: as §1
# [17] = molecular target: Fuc(a1-2)[Gal(a1-3)]Gal(b1-4)GlcNAc(b1-3)GalNAc
# Outline: as §1
# [18] = molecular target: Fuc(a1-2)[Gal(a1-3)]Gal(b1-4)GlcNAc(b1-3)[Fuc(a1-2)[Gal(a1-3)]Gal(b1-4)GlcNAc(b1-6)]GalNAc
# Outline: as §1
# [19] = molecular target: Fuc(a1-2)[Gal(a1-3)]Gal(b1-4)GlcNAc(b1-6)GalNAc
# Outline: as §1
# [20] = molecular target: Fuc(a1-2)[Gal(a1-3)]Gal(b1-4)[Fuc(a1-3)]Glc
# Outline: as §1
# [21] = molecular target: Fuc(a1-2)[Gal(a1-3)]Gal(b1-4)[Fuc(a1-3)]GlcNAc
# Outline: as §1
# [22] = molecular target: Fuc(a1-2)[Gal(a1-3)]Gal(b1-4)[Fuc(a1-3)]GlcNAc(b1-3)GalNAc
# Outline: as §1
# [23] = molecular target: Fuc(a1-2)[Gal(a1-4)]Gal(b1-4)GlcNAc
# Outline: as §1
# [24] = molecular target: Fuc(a1-2)[GalNAc(a1-3)]Gal
# Outline: as §1
# [25] = molecular target: Fuc(a1-2)[GalNAc(a1-3)]Gal(b1-3)GalNAc(a1-3)[Fuc(a1-2)]Gal(b1-4)GlcNAc
# Outline: as §1
# [26] = molecular target: Fuc(a1-2)[GalNAc(a1-3)]Gal(b1-3)GalNAc(b1-3)Gal(a1-4)Gal(b1-4)Glc
# Outline: as §1
# [27] = molecular target: Fuc(a1-2)[GalNAc(a1-3)]Gal(b1-3)GlcNAc
# Outline: as §1
# [28] = molecular target: Fuc(a1-2)[GalNAc(a1-3)]Gal(b1-3)GlcNAc(b1-2)Man(a1-3)[Fuc(a1-2)[GalNAc(a1-3)]Gal(b1-3)GlcNAc(b1-2)Man(a1-6)]Man(b1-4)GlcNAc(b1-4)GlcNAc
# Outline: as §1
# [29] = molecular target: Fuc(a1-2)[GalNAc(a1-3)]Gal(b1-3)GlcNAc(b1-2)Man(a1-3)[Fuc(a1-2)[GalNAc(a1-3)]Gal(b1-3)GlcNAc(b1-2)Man(a1-6)]Man(b1-4)GlcNAc(b1-4)[Fuc(a1-6)]GlcNAc
# Outline: as §1
# [30] = molecular target: Fuc(a1-2)[GalNAc(a1-3)]Gal(b1-3)GlcNAc(b1-3)GalNAc
# Outline: as §1
# [31] = molecular target: Fuc(a1-2)[GalNAc(a1-3)]Gal(b1-3)GlcNAc(b1-6)GalNAc
# Outline: as §1
# [32] = molecular target: Fuc(a1-2)[GalNAc(a1-3)]Gal(b1-4)Glc
# Outline: as §1
# [33] = molecular target: Fuc(a1-2)[GalNAc(a1-3)]Gal(b1-4)GlcNAc
# Outline: as §1
# [34] = molecular target: Fuc(a1-2)[GalNAc(a1-3)]Gal(b1-4)GlcNAc(b1-2)Man
# Outline: as §1
# [35] = molecular target: Fuc(a1-2)[GalNAc(a1-3)]Gal(b1-4)GlcNAc(b1-2)Man(a1-3)[Fuc(a1-2)[GalNAc(a1-3)]Gal(b1-4)GlcNAc(b1-2)Man(a1-6)]Man(b1-4)GlcNAc(b1-4)GlcNAc
# Outline: as §1
# [36] = molecular target: Fuc(a1-2)[GalNAc(a1-3)]Gal(b1-4)GlcNAc(b1-2)Man(a1-3)[Fuc(a1-2)[GalNAc(a1-3)]Gal(b1-4)GlcNAc(b1-2)Man(a1-6)]Man(b1-4)GlcNAc(b1-4)[Fuc(a1-6)]GlcNAc
# Outline: as §1
# [37] = molecular target: Fuc(a1-2)[GalNAc(a1-3)]Gal(b1-4)GlcNAc(b1-3)Gal(b1-4)GlcNAc
# Outline: as §1
# [38] = molecular target: Fuc(a1-2)[GalNAc(a1-3)]Gal(b1-4)GlcNAc(b1-3)Gal(b1-4)GlcNAc(b1-3)Gal(b1-4)GlcNAc
# Outline: as §1
# [39] = molecular target: Fuc(a1-2)[GalNAc(a1-3)]Gal(b1-4)GlcNAc(b1-3)GalNAc
# Outline: as §1
# [40] = molecular target: Fuc(a1-2)[GalNAc(a1-3)]Gal(b1-4)GlcNAc(b1-3)[Fuc(a1-2)[GalNAc(a1-3)]Gal(b1-4)GlcNAc(b1-6)]GalNAc
# Outline: as §1
# [41] = molecular target: Fuc(a1-2)[GalNAc(a1-3)]Gal(b1-4)GlcNAc(b1-6)GalNAc
# Outline: as §1
# [42] = molecular target: Fuc(a1-2)[GalNAc(a1-3)]Gal(b1-4)[Fuc(a1-3)]GlcNAc
# Outline: as §1
# [43] = molecular target: Fuc(a1-2)[GalNAc(a1-3)]Gal(b1-4)[Fuc(a1-3)]GlcNAc(b1-3)GalNAc
# Outline: as §1
# [44] = molecular target: Fuc(a1-2)[GalNAc(a1-4)]Gal(b1-4)GlcNAc
# Outline: as §1
# [45] = molecular target: Fuc(a1-2)[GalNAc(b1-3)]Gal
# Outline: as §1
binder,measurement,setting,value
GS13599A-bth-520-23-520 (Bacteroides thetaiotaomicron) (protein) SEDTMDRINKDHDHTTSVASRFILADVITSTAFSNASGDINTYASSYIEYEVGVDNQLYYAEVRENEPSSSSTFNNSWNGIYSSLKNARIIIDQCGEGGRDHGNDVTRGMAEVMAAYNCALIADFFGDAPCSQAALVDEKGSPVYMTPKMDTQQEIYTQIISYLDDAIANLQKEDLADVTEQDFLYAGDADKWLKFAYGLKARYTMRLINRSSNKSADYEKVLDYVSKSFTSADDQAAFDIYDSNNINPFYGFYNSRAGFGASTSLGTKLLAYNDPRANRAFFTPIVDKKRSQVAANDPSLVPAPNGSPDQSTSKYGISAFVYAKTAPTLLMSYHELMFLKAEALCRLNRDAEDALKEAVVAGLLNAENSISIAIKELGSGLNTNSSEVITETSAGKYFDDVVKAKYAANPLQETMIQKYLAMWGASGEATETYNDFRRMKGLNENFITLTNPNNSSKFPLRYPYGNSDTAANPEVKAAYGNGDYVYSEPVWWAGGSR,glycan array binding signal (z-score),[1],0.036
same,glycan array binding signal (z-score),[2],-0.385
same,glycan array binding signal (z-score),[3],-0.124
same,glycan array binding signal (z-score),[4],0.757
same,glycan array binding signal (z-score),[5],0.632
same,glycan array binding signal (z-score),[6],-0.375
same,glycan array binding signal (z-score),[7],-0.4
same,glycan array binding signal (z-score),[8],-0.466
same,glycan array binding signal (z-score),[9],0.995
same,glycan array binding signal (z-score),[10],-0.891
same,glycan array binding signal (z-score),[11],-0.055
same,glycan array binding signal (z-score),[12],-0.349
same,glycan array binding signal (z-score),[13],-1.5
same,glycan array binding signal (z-score),[14],-0.234
same,glycan array binding signal (z-score),[15],2.32
same,glycan array binding signal (z-score),[16],-0.141
same,glycan array binding signal (z-score),[17],0.566
same,glycan array binding signal (z-score),[18],-0.073
same,glycan array binding signal (z-score),[19],-1.3
same,glycan array binding signal (z-score),[20],-0.724
same,glycan array binding signal (z-score),[21],-0.465
same,glycan array binding signal (z-score),[22],-1.29
same,glycan array binding signal (z-score),[23],-0.508
same,glycan array binding signal (z-score),[24],-0.356
same,glycan array binding signal (z-score),[25],-1.28
same,glycan array binding signal (z-score),[26],-0.294
same,glycan array binding signal (z-score),[27],0.702
same,glycan array binding signal (z-score),[28],0.224
same,glycan array binding signal (z-score),[29],0.302
same,glycan array binding signal (z-score),[30],0.509
same,glycan array binding signal (z-score),[31],-0.324
same,glycan array binding signal (z-score),[32],1.43
same,glycan array binding signal (z-score),[33],-0.764
same,glycan array binding signal (z-score),[34],-0.507
same,glycan array binding signal (z-score),[35],1.28
same,glycan array binding signal (z-score),[36],-0.373
same,glycan array binding signal (z-score),[37],-0.202
same,glycan array binding signal (z-score),[38],0.709
same,glycan array binding signal (z-score),[39],-0.581
same,glycan array binding signal (z-score),[40],0.21
same,glycan array binding signal (z-score),[41],-1.38
same,glycan array binding signal (z-score),[42],0.824
same,glycan array binding signal (z-score),[43],-0.715
same,glycan array binding signal (z-score),[44],-0.861
same,glycan array binding signal (z-score),[45],0.033

# Random excerpt: 2 records from the list.
binder,measurement,setting,value
GS13599A-bth-520-23-520 (Bacteroides thetaiotaomicron) (protein) SEDTMDRINKDHDHTTSVASRFILADVITSTAFSNASGDINTYASSYIEYEVGVDNQLYYAEVRENEPSSSSTFNNSWNGIYSSLKNARIIIDQCGEGGRDHGNDVTRGMAEVMAAYNCALIADFFGDAPCSQAALVDEKGSPVYMTPKMDTQQEIYTQIISYLDDAIANLQKEDLADVTEQDFLYAGDADKWLKFAYGLKARYTMRLINRSSNKSADYEKVLDYVSKSFTSADDQAAFDIYDSNNINPFYGFYNSRAGFGASTSLGTKLLAYNDPRANRAFFTPIVDKKRSQVAANDPSLVPAPNGSPDQSTSKYGISAFVYAKTAPTLLMSYHELMFLKAEALCRLNRDAEDALKEAVVAGLLNAENSISIAIKELGSGLNTNSSEVITETSAGKYFDDVVKAKYAANPLQETMIQKYLAMWGASGEATETYNDFRRMKGLNENFITLTNPNNSSKFPLRYPYGNSDTAANPEVKAAYGNGDYVYSEPVWWAGGSR,glycan array binding signal (z-score),[41],-1.38
same,glycan array binding signal (z-score),[39],-0.581
